The values are deposited in ChEMBL (CHEMBL3988442, “University of Dundee, Small-Polar-MMV Screening Library” (2021)).

The chains behind the UniProt entries cited, without tags or fusion partners. Residues count along the entry.
UniProt Q4DA54, 1-478: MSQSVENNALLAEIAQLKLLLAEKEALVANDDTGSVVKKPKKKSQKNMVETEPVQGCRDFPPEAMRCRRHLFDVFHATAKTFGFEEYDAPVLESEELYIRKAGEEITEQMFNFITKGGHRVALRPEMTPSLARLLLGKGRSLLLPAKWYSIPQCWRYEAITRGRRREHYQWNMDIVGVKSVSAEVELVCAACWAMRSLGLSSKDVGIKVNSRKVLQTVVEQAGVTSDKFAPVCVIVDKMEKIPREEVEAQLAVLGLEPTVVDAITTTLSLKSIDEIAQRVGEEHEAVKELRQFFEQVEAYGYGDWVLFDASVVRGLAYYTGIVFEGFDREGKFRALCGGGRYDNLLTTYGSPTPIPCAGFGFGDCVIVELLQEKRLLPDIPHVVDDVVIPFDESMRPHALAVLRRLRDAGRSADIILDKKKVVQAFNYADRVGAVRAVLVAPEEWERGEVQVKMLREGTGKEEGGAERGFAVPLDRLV

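Enzyme assay of histidyl-tRNA synthetase; the read-out is not stated. Target: Histidine-tRNA ligase, Trypanosoma cruzi CL Brener (UniProt Q4DA54). Tested at 30 µM. Higher reads as stronger inhibition (inferred: compounds with an IC50 in retests scored well above the rest). Of about 69,000 compounds tested this way, about 31 (0.045%) reached 50% or more in at least one test.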

Each number is a percent effect as filed.
The controls that fix the scale are not given in the record; negative values are as filed.
Compounds were drawn at random from those tested, without regard to their results.

compound,effect
CCCOc1ccc(CCC(=O)Nc2nonc2C)cc1,0.5181
CCNC(=O)[C@@H]1CCCN1C1(C(=O)NC)CCCCC1,13.86
Cc1ccc(CN2CC[C@@H]3O[C@@H](C(=O)N4CCN(C)CC4)C[C@@H]32)cc1,5.028
O[C@]12CC[C@H](CC1)N(Cc1ccc(F)cc1)C2CN1CCOCC1 (some centres not stated),3.371
Cc1nc(NCc2cccc(F)c2)cc(C2CCNCC2)n1,4.615
Cc1cc(CN2CCN(C(=O)C3(C#N)CCCC3)CC2)on1,5.063
Cc1nc(Oc2ccccc2Cl)sc1C(=O)O,4
O=C(c1cscn1)N1C[C@H](OCc2cccnc2)[C@H]2COC[C@H]21,6.542
CNc1cc(C2CCCN2Cc2ccc(OCC(=O)O)cc2)ccn1 (configuration not stated),1.498
O=C(Nc1cccc(N2CCN(CC3CC3)CC2)c1)C1CCOC1 (configuration not stated),6.349
CCc1nn(C)c(Cl)c1CN1CCN(c2nc(C(N)=O)cs2)CC1,-0.4926
CCc1n[nH]c(C2CN(C(=O)c3cc4c(s3)CCCC4)CCO2)n1 (configuration not stated),6.767
CCc1nc(C2CCCN(C(=O)c3ccc(O)nc3)C2)no1 (configuration not stated),3.207
CN(C)CCCN1CC2(CCN(C(=O)C3(C)CCCCO3)CC2)OC1=O (configuration not stated),7.407
O=C1CCC(C(=O)NCc2nn(-c3ccccc3)c3c2CCC3)CN1 (configuration not stated),-0.7634
Cc1cccc(N2CCN(C(=O)CCc3c(C)noc3Cl)CC2)c1,-1.734
O=C(c1ccnnc1)N1C[C@H](Oc2ccccn2)[C@H]2OCCC[C@H]21,8.173
CC(C)N1CCC(Cn2cc(C(N)=O)cn2)CC1,3.03
Cc1cc(NS(=O)(=O)c2ccc(Cl)s2)ccc1-n1cccc1C(=O)O,-1.667
CCn1ccc(CNC(=O)c2cc(OC)cc(OC)c2)n1,0.4464
CCC(O)CN1CCN(C(=O)Cc2ccc(OC)cc2OC)CC1 (configuration not stated),0.2849
Cn1c2ccc(F)cc2c2ncn(CCCN(CCO)CCO)c(=O)c21,4
Cc1c(CN2CCCC(O)C2)[nH]c2ccc(F)cc12 (configuration not stated),3.101
COc1ccc(F)c(-c2ncccc2C(=O)N2C[C@H]3CC[C@@H]2C3)c1,-1.064
O=C(NC1CCCCC1)N1CCC(N2Cc3ncccc3C2=O)CC1,9.827
CN(Cc1coc(-c2ccccc2)n1)CC1CCCN1c1cccnn1 (configuration not stated),13.33
CC(C)c1nnc(CN2CCCC2Cn2cncn2)o1 (configuration not stated),-3.817
Cc1cc(CCC(N)=O)cc(C2CCCN2Cc2cnc(C)nc2)n1 (configuration not stated),-4.494
O=C(NCCC(=O)N1CCCc2ccccc21)c1ccc(F)cc1F,2.624
C=C(C)CN1CCC(NC(=O)Nc2cc(C(N)=O)ccc2OC)CC1,5.911
Cn1cc(Cl)cc1C(=O)N1CCN(Cc2ccsc2)CC1,6.464
CCNC(=O)CNS(=O)(=O)c1cc(Br)ccc1F,2.809
CCOCC(=O)N1C[C@@H]2CC[C@H](Oc3ccccc3)[C@@H]2C1,6.716
CS(=O)(=O)c1ccc(CNC[C@H]2COCc3nc4ccccc4n32)cc1,11.88
Cc1nn(C)c(N2CCOCC2)c1CNC(C(N)=O)c1ccccc1 (configuration not stated),2.632
Cn1ccnc1CN1CCN(CC2CC2)[C@@H]2CS(=O)(=O)C[C@@H]21,6.468
CC(=O)Nc1nc(C(=O)N2CCCC(c3cc(C)[nH]n3)C2)cs1 (configuration not stated),0
O=C(c1ccc2ccccc2n1)N1CCC2(CCN2c2ncccn2)C1 (configuration not stated),12.06
COc1cc(C(=O)NCC2CCCN(Cc3ccco3)C2)ccn1 (configuration not stated),2.597
CC(C)c1nn(C)c(Cl)c1CNCc1ccc2c(c1)OCO2,4.046
CN(CC(O)C1CC1)C(=O)Nc1ccc(F)c(-n2cccc2)c1 (configuration not stated),2.105
COc1c(C)cnc(CN(C)C2CCOC3(CCOCC3)C2)c1C (configuration not stated),8.173
COCCN1CCC(NCc2ccc(Cl)cc2)C1 (configuration not stated),4
Cc1nn(C)cc1S(=O)(=O)NCC(C)Cn1cc(Cl)cn1 (configuration not stated),0.4464
Nc1cc(N2CCCC(CO)(Cc3ccccc3F)C2)nc(N)n1 (configuration not stated),7.2
Cc1nnc(NC(=O)C(C)n2ncc(Br)c2C)s1 (configuration not stated),3.627
Cc1cc(N(C)C)nc(N2CCCC2c2cccnc2)n1 (configuration not stated),4.706
COCCNCc1ccc(OCC(=O)NC(C)(C)C)cc1,0
Cn1cnc2c1C(COCc1cccnc1)N(Cc1ccccc1)CC2 (configuration not stated),7.463
CCn1c(C2CCN(Cc3cc(C)n(NC(C)=O)c3C)CC2)n[nH]c1=O,9.827
CCc1ncncc1C(=O)Nc1ccc2ccn(CCN(C)C)c2c1,3.947
Cn1cc(CN2CCC[C@]3(C[C@@H](Oc4ncccc4F)CO3)C2)cn1,2.793
O=C(CC1CCN(CCc2ccccc2)CC1)NC1CCOCC1,-3.846

For reference, 5 entries once more:

- O=C(NCCC(=O)N1CCCc2ccccc21)c1ccc(F)cc1F : 2.624%
- Cc1ccc(CN2CC[C@@H]3O[C@@H](C(=O)N4CCN(C)CC4)C[C@@H]32)cc1 : 5.028%
- O=C1CCC(C(=O)NCc2nn(-c3ccccc3)c3c2CCC3)CN1 (configuration not stated) : -0.7634%
- Cc1cc(CCC(N)=O)cc(C2CCCN2Cc2cnc(C)nc2)n1 (configuration not stated) : -4.494%
- CCn1ccc(CNC(=O)c2cc(OC)cc(OC)c2)n1 : 0.4464%